PubChem BioAssay AID1224831 – NIAID | 2016
Assay: 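Retesting screen hits on the TLR4-driven TNF response with six separate siRNAs each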 (follow-up of hits). Cells: human THP-1 B5 monocytic leukaemia cells carrying a TNF promoter luciferase reporter, made macrophage-like with PMA. Reagent: single siRNA against human genes, 50 nM. Time to read-out: about 68 h of knock-down, then 4 h LPS. Treatment: LPS (Salmonella minnesota, TLR-grade) at 10 ng/ml for 4 h; PMA 5 ng/ml present during knock-down. Measurement: 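TNF promoter reporter read as dual luciferase ratio after 4 h LPS, normalised per plate to its median, given as replicate mean robust z-score per siRNA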. Direction: TNF reporter z-score: higher = stronger LPS-induced TNF reporter signal; z-score, median over gene's siRNAs: higher = stronger TNF reporter signal across the gene's siRNAs. Hit rule: 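Active when the replicate mean z-score is about -1 or lower, or about 1.5 or higher; lowered and raised TNF reporter signal both count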. Meaning of the calls: active = changed TNF reporter (either direction); inactive = little change.
In all, the deposit lists about 3,500 reagents; shown is a random part of them. 731 of them (21%) were called active. 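Active means either lowered or raised reporter signal; the gene-median score did not drive the per-siRNA calls.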 The numbers tell different reagents against one gene apart.

The first 7 records as a preview:
Gene	reagent no.	TNF reporter z-score, replicate mean	z-score, median over gene's siRNAs	outcome
OR10A5	1	-1.59	0.235	active
OR10A5	2	1.4	0.235	inactive
OR10A5	3	0.92	0.235	inactive
OR10A5	4	-0.04	0.235	inactive
OR10A5	5	0.51	0.235	inactive
OR10A5	6	-0.56	0.235	inactive
KLF12	1	1.83	0.41	active

Results, repeating the preview:
Gene	reagent no.	TNF reporter z-score, replicate mean	z-score, median over gene's siRNAs	outcome
OR10A5	1	-1.59	0.235	active
OR10A5	2	1.4	0.235	inactive
OR10A5	3	0.92	0.235	inactive
OR10A5	4	-0.04	0.235	inactive
OR10A5	5	0.51	0.235	inactive
OR10A5	6	-0.56	0.235	inactive
KLF12	1	1.83	0.41	active
KLF12	2	0.66	0.41	inactive
KLF12	3	-0.59	0.41	inactive
KLF12	4	-0.18	0.41	inactive
KLF12	5	1.71	0.41	active
KLF12	6	0.16	0.41	inactive
MKX	1	-0.49	-0.02	inactive
MKX	2	0.05	-0.02	inactive
MKX	3	1.16	-0.02	inactive
MKX	4	-0.09	-0.02	inactive
MKX	5	-0.73	-0.02	inactive
MKX	6	0.46	-0.02	inactive
HRH2	1	0.73	0.51	inactive
HRH2	2	-0.98	0.51	inactive
HRH2	3	0.36	0.51	inactive
HRH2	4	0.58	0.51	inactive
HRH2	5	0.44	0.51	inactive
HRH2	6	0.66	0.51	inactive
PLPPR2	1	0.44	0.29	inactive
PLPPR2	2	0.15	0.29	inactive
PLPPR2	3	0.16	0.29	inactive
PLPPR2	4	0.4	0.29	inactive
PLPPR2	5	2.31	0.29	active
PLPPR2	6	0.18	0.29	inactive
ADPRHL1	1	0.79	-0.62	inactive
ADPRHL1	2	-0.39	-0.62	inactive
ADPRHL1	3	-0.86	-0.62	inactive
ADPRHL1	4	-0.19	-0.62	inactive
ADPRHL1	5	-0.85	-0.62	inactive
ADPRHL1	6	-1.2	-0.62	active
NXF1	1	-1.86	-1.51	active
NXF1	2	-1.87	-1.51	active
NXF1	3	-1.65	-1.51	active
NXF1	4	-1.37	-1.51	active
NXF1	5	-0.84	-1.51	inactive
NXF1	6	-0.5	-1.51	inactive
SLC2A1	1	-0.31	-0.515	inactive
SLC2A1	2	0.07	-0.515	inactive
SLC2A1	3	-1.26	-0.515	active
SLC2A1	4	-0.88	-0.515	inactive
SLC2A1	5	-0.72	-0.515	inactive
SLC2A1	6	0.07	-0.515	inactive
CDK14	1	0.34	0.55	inactive
CDK14	2	-0.64	0.55	inactive
CDK14	3	-0.16	0.55	inactive
CDK14	4	0.78	0.55	inactive
CDK14	5	0.76	0.55	inactive
CDK14	6	2.12	0.55	active
DEFB110	1	0.43	0.3	inactive
DEFB110	2	-0.42	0.3	inactive
DEFB110	3	0.17	0.3	inactive
DEFB110	4	1.14	0.3	inactive
DEFB110	5	2.11	0.3	active
DEFB110	6	-0.39	0.3	inactive
